Test results: paper PMC5392496
No constants are given. Whether binding was seen depends on the method and setting. Binding seen in cells or lysates may run through a third protein. Some results given as binding are weak or reduced against the parent protein; the word gives no strength.

By UniProt entry, the sequences of proteins in these tests, tags left out.
UniProt P22700: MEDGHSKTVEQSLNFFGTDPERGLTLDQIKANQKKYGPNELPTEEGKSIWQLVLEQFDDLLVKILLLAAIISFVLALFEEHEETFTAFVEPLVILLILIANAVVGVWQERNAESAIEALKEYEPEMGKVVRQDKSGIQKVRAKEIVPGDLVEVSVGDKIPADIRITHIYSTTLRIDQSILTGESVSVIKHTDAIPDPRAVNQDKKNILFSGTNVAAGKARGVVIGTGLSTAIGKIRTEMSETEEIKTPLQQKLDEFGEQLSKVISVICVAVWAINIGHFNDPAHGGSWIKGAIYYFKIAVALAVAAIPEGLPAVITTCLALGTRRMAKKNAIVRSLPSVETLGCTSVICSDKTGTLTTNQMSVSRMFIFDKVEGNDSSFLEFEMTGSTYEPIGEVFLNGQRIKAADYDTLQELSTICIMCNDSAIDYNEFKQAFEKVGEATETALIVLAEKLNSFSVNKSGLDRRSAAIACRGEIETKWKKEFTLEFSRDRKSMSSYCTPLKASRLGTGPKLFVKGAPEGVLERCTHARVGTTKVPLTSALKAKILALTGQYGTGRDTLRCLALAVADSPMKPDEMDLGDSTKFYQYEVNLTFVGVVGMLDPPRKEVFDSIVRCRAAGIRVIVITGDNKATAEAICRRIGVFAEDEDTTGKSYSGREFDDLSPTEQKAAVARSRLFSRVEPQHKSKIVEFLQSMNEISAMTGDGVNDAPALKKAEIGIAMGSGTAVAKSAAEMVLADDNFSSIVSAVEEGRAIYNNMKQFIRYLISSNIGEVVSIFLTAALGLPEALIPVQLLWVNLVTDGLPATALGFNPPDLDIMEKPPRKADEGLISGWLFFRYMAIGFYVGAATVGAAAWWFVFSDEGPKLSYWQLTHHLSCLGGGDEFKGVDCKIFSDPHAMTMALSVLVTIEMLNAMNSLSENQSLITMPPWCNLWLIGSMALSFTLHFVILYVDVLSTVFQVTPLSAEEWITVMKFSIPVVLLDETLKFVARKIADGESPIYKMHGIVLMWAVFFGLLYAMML
UniProt Q9VWB9: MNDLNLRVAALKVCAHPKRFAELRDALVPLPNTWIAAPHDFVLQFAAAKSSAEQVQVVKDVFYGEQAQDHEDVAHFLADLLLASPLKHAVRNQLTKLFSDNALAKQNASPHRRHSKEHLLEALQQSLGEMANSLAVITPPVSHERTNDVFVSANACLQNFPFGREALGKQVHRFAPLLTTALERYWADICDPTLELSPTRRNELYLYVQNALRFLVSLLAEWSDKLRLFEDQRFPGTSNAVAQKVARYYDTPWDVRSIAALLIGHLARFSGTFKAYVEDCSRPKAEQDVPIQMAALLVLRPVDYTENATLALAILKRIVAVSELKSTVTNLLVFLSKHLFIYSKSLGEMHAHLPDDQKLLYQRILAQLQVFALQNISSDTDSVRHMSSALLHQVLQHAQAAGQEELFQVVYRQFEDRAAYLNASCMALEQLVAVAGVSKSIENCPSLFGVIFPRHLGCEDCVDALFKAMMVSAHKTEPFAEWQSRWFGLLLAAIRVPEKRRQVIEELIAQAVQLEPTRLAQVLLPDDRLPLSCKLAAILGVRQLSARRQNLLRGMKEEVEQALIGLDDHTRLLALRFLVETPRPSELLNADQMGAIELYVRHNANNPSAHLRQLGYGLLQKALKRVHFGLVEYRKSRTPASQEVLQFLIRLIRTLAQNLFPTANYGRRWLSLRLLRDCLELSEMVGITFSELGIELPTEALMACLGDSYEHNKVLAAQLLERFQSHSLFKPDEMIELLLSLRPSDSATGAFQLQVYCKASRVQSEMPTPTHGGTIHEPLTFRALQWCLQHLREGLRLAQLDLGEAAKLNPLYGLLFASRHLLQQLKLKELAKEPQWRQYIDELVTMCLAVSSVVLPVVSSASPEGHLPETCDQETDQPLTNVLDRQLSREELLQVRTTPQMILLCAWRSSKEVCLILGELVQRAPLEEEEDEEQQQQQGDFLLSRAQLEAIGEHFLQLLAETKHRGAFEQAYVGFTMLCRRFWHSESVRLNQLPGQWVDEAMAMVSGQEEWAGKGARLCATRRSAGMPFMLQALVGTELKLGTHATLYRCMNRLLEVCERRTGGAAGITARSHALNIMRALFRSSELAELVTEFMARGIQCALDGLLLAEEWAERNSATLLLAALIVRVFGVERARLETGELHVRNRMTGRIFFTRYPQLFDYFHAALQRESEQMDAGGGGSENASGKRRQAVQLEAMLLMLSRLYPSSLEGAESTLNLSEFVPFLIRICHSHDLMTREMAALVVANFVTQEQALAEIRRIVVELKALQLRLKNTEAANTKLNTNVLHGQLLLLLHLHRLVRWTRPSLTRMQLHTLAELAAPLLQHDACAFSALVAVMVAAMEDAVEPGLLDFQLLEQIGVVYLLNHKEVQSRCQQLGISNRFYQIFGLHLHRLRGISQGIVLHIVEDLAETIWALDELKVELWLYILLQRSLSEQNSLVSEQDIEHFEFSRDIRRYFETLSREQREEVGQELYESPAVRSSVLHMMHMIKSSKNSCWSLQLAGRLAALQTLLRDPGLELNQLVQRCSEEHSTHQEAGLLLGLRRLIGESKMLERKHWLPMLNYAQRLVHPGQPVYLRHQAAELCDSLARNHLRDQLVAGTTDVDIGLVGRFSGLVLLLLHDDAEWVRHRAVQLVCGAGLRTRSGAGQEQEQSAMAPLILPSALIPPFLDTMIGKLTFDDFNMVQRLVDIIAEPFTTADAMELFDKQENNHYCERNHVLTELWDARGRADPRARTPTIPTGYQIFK

Key:
[1] = target: FLAG-SERCA (Drosophila melanogaster) (UniProt P22700); assay: co-IP; FLAG-SERCA immunoprecipitates from transfected Kc167 cells, immunoblotted for endogenous THADA; IP lysis buffer 50 mM Tris pH 7.5, 1% Triton-X, 150 mM NaCl; 4°C; protein A beads
[2] = target: Drosophila THADA (CG15618) (Drosophila melanogaster (endogenous in flies and Kc167 cells)) (UniProt Q9VWB9); assay: co-IP; immunoprecipitation of endogenous THADA from lysates of transgenic adult flies expressing FLAG-SERCA; IP lysis buffer 50 mM Tris pH 7.5, 1% Triton-X, 150 mM NaCl; 4°C; protein A beads; Western blot
[3] = target: Drosophila THADA (CG15618) (Drosophila melanogaster (endogenous in flies and Kc167 cells)) (UniProt Q9VWB9); assay: co-IP; immunoprecipitation of endogenous THADA from Kc167 lysates, blotted for FLAG-SERCA; lysates from THADA knockdown cells as negative control; IP lysis buffer 50 mM Tris pH 7.5, 1% Triton-X, 150 mM NaCl; 4°C; protein A beads

Substance | binding [1] | binding [2] | binding [3]
Drosophila THADA (CG15618) (from UniProt Q9VWB9 1-1746) | binds | – | –
FLAG-SERCA (from UniProt P22700 1-1020) | – | binds | binds
